This passage reports binding results from article doi:10.1101/2021.11.02.467017.

Chains of the proteins cited; added tags and fusions are not shown. Lines headed by an entry give the natural chain unless they say otherwise; changes in a name come on top. Residues count along the entry.
UniProt Q91VL8, whole entry, looked up, stated change not applied: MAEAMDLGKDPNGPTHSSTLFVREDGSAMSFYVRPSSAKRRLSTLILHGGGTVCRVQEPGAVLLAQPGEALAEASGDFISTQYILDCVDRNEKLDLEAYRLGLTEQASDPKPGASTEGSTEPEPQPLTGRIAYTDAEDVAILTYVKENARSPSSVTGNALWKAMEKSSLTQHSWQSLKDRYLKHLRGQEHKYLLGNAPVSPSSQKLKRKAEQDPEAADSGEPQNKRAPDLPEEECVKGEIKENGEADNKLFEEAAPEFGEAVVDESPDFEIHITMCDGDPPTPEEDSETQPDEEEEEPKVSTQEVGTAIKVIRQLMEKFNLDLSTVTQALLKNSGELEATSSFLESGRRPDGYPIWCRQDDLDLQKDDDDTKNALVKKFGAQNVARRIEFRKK
UniProt Q8C9X6, whole entry: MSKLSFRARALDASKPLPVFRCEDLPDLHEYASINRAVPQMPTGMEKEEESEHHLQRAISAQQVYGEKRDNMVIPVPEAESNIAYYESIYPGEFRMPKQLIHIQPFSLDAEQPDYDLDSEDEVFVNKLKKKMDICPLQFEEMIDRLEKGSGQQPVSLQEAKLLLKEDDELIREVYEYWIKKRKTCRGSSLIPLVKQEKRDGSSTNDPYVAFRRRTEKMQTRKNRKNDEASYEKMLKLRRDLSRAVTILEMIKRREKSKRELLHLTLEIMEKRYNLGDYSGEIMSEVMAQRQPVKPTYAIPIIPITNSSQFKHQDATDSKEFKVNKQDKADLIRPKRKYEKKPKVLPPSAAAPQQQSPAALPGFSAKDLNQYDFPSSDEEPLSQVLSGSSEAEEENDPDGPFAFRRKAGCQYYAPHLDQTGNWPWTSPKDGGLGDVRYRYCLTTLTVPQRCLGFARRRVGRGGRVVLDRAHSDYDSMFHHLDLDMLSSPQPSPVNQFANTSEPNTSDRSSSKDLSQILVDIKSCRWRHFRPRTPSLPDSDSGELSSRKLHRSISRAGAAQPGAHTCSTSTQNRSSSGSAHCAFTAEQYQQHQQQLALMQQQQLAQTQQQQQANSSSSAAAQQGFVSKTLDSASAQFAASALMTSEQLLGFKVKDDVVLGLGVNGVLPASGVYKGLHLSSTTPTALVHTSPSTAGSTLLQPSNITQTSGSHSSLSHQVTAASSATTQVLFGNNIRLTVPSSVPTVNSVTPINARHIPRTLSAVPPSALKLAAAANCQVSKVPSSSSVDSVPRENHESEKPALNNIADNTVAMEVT
UniProt Q9H2F5, 1-581: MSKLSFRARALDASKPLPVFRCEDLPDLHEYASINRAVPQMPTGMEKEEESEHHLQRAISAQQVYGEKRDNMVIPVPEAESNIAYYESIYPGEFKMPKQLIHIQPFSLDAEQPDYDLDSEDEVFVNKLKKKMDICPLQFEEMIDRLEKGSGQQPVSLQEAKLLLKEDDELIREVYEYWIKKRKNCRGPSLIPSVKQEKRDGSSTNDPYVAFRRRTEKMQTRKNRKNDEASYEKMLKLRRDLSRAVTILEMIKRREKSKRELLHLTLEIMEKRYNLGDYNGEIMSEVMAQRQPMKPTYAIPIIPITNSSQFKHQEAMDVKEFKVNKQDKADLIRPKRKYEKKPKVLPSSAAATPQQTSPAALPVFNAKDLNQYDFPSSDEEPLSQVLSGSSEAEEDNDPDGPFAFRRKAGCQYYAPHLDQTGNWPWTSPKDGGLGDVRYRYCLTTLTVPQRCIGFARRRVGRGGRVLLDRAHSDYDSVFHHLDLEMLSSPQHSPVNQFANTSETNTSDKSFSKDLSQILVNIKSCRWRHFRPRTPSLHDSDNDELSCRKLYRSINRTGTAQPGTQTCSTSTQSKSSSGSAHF
UniProt Q8C0I4, whole entry: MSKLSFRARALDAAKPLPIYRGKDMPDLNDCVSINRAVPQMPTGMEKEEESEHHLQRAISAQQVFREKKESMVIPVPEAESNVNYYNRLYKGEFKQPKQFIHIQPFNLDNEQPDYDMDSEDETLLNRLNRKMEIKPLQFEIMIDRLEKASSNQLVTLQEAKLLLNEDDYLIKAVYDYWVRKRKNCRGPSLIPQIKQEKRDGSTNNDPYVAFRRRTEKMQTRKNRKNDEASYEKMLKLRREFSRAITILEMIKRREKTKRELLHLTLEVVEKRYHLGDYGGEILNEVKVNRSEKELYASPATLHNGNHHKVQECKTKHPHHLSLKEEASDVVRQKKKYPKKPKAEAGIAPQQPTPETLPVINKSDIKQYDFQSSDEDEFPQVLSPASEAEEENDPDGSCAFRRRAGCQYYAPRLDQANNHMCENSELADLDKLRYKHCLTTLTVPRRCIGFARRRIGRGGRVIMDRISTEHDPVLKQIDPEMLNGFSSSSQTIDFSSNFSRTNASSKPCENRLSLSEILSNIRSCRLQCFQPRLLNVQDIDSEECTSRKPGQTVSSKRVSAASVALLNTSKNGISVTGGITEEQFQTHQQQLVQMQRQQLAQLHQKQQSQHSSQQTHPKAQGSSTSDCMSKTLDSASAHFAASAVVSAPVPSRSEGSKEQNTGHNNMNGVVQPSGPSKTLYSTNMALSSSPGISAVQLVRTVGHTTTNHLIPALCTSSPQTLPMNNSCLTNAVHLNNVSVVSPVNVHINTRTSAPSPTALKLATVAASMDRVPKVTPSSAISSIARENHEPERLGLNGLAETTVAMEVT
UniProt O35144, whole entry: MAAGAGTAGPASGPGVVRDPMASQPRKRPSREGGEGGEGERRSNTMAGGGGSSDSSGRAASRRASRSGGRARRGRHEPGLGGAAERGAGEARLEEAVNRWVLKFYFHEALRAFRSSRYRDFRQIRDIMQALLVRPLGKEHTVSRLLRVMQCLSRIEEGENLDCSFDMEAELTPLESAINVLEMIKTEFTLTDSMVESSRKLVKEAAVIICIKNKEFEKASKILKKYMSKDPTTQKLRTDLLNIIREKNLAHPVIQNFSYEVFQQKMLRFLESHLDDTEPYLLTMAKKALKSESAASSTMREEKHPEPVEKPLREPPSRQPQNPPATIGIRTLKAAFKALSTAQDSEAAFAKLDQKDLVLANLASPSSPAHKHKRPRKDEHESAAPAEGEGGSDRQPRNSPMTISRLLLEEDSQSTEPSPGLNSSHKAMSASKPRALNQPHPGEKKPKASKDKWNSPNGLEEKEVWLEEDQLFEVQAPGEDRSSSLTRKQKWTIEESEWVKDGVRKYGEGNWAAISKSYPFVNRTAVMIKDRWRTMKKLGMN
UniProt Q8CHK4, whole entry: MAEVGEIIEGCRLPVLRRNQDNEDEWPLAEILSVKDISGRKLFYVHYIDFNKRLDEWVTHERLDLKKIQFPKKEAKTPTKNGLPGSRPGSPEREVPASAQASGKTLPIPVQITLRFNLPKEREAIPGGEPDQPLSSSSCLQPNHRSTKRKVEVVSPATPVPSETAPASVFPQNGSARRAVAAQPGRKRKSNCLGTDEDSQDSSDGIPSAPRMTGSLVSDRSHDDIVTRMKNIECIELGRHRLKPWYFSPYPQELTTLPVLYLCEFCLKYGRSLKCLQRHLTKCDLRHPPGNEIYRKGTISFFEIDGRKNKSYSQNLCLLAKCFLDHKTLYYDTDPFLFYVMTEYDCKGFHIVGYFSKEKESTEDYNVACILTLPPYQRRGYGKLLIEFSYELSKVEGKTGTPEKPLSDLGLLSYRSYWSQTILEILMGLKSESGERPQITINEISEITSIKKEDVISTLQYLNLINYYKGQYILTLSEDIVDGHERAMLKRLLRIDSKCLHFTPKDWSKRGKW

Results are given in words; binding and its absence hold for the method and conditions named. For some assays here: Binding seen in cells or lysates may run through a third protein. Some entries that bind do so weakly or less than the wild type. For some assays here: Sequences can lack the tags named with a protein.

The target in one test is HA-Rap1-I312R (mouse) (UniProt Q91VL8). The test is described as follows: co-IP.
Another test deals with Flag-Epc1 (mouse) (UniProt Q8C9X6). The test is described as follows: co-IP.
Test [1] addresses GST-tagged EPC1 (aa 1-581) (UniProt Q9H2F5). In words: pull-down.

Regarding “Myc-Epc1 (pCMV6-MCS-Myc-Flag, Origene) (from UniProt Q8C9X6 1-813)”, the binding entry with HA-Rap1-I312R (mouse) is “binds”.
The same measure, in the same setting: as for “Myc-Epc2 (pCMV6-MCS-Myc-Flag, Origene) (from UniProt Q8C0I4 1-808)”, the entry is “binds”.
As to Myc-TRF2 (from UniProt O35144 1-541), the binding entry in the test with Flag-Epc1 (mouse) is “no binding”.
Regarding “Myc-Tip60 (pLPC-N-Myc) (from UniProt Q8CHK4 1-513)”, in the test with Flag-Epc1 (mouse), the binding result is given as “binds”.

B1: His-RAP1 (protein, UniProt Q9NYB0 1-399)
chain: MAEAMDLGKDPNGPTHSSTLFVRDDGSSMSFYVRPSPAKRRLSTLILHGGGTVCRVQEPGAVLLAQPGEALAEASGDFISTQYILDCVERNERLELEAYRLGPASAADTGSEAKPGALAEGAAEPEPQRHAGRIAFTDADDVAILTYVKENARSPSSVTGNALWKAMEKSSLTQHSWQSLKDRYLKHLRGQEHKYLLGDAPVSPSSQKLKRKAEEDPEAADSGEPQNKRTPDLPEEEYVKEEIQENEEAVKKMLVEATREFEEVVVDESPPDFEIHITMCDDDPPTPEEDSETQPDEEEEEEEEKVSQPEVGAAIKIIRQLMEKFNLDLSTVTQAFLKNSGELEATSAFLASGQRADGYPIWSRQDDIDLQKDDEDTREALVKKFGAQNVARRIEFRKK
Consider B1, for which the binding entry in test [1] is “binds”.
